These results are taken from article PMC12639820.

This experiment deals with purified C3d (human), P01024. Nature of the experiment: ELISA; C3b (5 ug/ml) or C3d (5 ug/ml) coated on wells; purified biotinylated human FH (6 ug/ml) preincubated in solution with different amounts of total IgG from patient serum (kAb) or NHS; both purified. Particulars: remark: other sources report otherwise.

No constants are given. Whether binding was seen depends on the method and setting. Some entries that bind do so weakly or less than the wild type.

B1: purified biotinylated human factor H, P08603 19-1231 (protein)
chain: EDCNELPPRRNTEILTGSWSDQTYPEGTQAIYKCRPGYRSLGNVIMVCRKGEWVALNPLRKCQKRPCGHPGDTPFGTFTLTGGNVFEYGVKAVYTCNEGYQLLGEINYRECDTDGWTNDIPICEVVKCLPVTAPENGKIVSSAMEPDREYHFGQAVRFVCNSGYKIEGDEEMHCSDDGFWSKEKPKCVEISCKSPDVINGSPISQKIIYKENERFQYKCNMGYEYSERGDAVCTESGWRPLPSCEEKSCDNPYIPNGDYSPLRIKHRTGDEITYQCRNGFYPATRGNTAKCTSTGWIPAPRCTLKPCDYPDIKHGGLYHENMRRPYFPVAVGKYYSYYCDEHFETPSGSYWDHIHCTQDGWSPAVPCLRKCYFPYLENGYNQNYGRKFVQGKSIDVACHPGYALPKAQTTVTCMENGWSPTPRCIRVKTCSKSSIDIENGFISESQYTYALKEKAKYQCKLGYVTADGETSGSITCGKDGWSAQPTCIKSCDIPVFMNARTKNDFTWFKLNDTLDYECHDGYESNTGSTTGSIVCGYNGWSDLPICYERECELPKIDVHLVPDRKKDQYKVGEVLKFSCKPGFTIVGPNSVQCYHFGLSPDLPICKEQVQSCGPPPELLNGNVKEKTKEEYGHSEVVEYYCNPRFLMKGPNKIQCVDGEWTTLPVCIVEESTCGDIPELEHGWAQLSSPPYYYGDSVEFNCSESFTMIGHRSITCIHGVWTQLPQCVAIDKLKKCKSSNLIILEEHLKNKKEFDHNSNIRYRCRGKEGWIHTVCINGRWDPEVNCSMAQIQLCPPPPQIPNSHNMTTTLNYRDGEKVSVLCQENYLIQEGEEITCKDGRWQSIPLCVEKIPCSQPPQIEHGTINSSRSSQESYAHGTKLSYTCEGGFRISEENETTCYMGKWSSPPQCEGLPCKSPPEISHGVVAHMSDSYQYGEEVTYKCFEGFGIDGPAIAKCLGEKWSHPPSCIKTDCLSLPSFENAIPMGEKKDVYKAGEQVTYTCATYYKMDGASNVTCINSRWTGRPTCRDTSCVNPPTVQNAYIVSRQMSKYPSGERVRYQCRSPYEMFGDEEVMCLNGNWTEPPQCKDSTGKCGPPPPIDNGDITSFPLSVYAPASSVEYQCQNLYQLEGNKRITCRNGQWSEPPKCLHPCVISREIMENYNIALRWTAKQKLYSRTGESVEFVCKRGYRLSSRSHTLRTTCWDGKLEYPTCAKR
modifications: here or on the partner: biotin (biotinylated; sites not stated)
As to B1, the binding entry was “binds”.
